Laboratory results from US6034064A (Hoechst Pharmaceuticals & Chemicals K.K., priority 1995, dated 2000).

Assay: solid-phase peptide synthesis
Details: whole synthesis, 215 nm

Substance: PEPTIDE1{[tBoc].A.K.L.T.F.G.K.G.T}$$$$V2.0
- final HPLC purity: 97.2%

Strings that start with PEPTIDE1 are HELM notation: dots part the residues, brackets hold end groups and non-standard residues.
